PubChem BioAssay AID1259308, NCATS | 2017
Test: 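Candidate targets for better recombinant protein yield in mammalian cells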 (primary screen). Cell system: human HEK293 embryonic kidney cells stably expressing firefly luciferase (HEK-CMV-Luc2-Hygro). Knock-down reagent: single siRNA against human genes, 0.8 pmol siRNA per well. Time to read-out: 72 h. Read-out: 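Reporter luminescence and viable-cell signal on separate replicate plates, given as percent of non-targeting control and median/MAD z-scores, plus per-cell luciferase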. Reading the numbers: total luciferase, z-score and total luciferase, % of control: higher = more reporter protein produced. Rule for the call: 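Active when the median/MAD z-score for overall luciferase is greater than 3; a gene was taken forward for validation with new siRNAs if at least two of its three siRNAs passed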. Calls: active = raised luciferase; inactive = no rise.
Here is a random part of about 59,000 deposited reagents. About 1,510 of all reagents (2.6%) were called active. 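Calls use total luciferase alone and ignore viability, so some active siRNAs may act by altering cell number.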 Unmarked entries are inactive. Reagents against one gene are numbered here. Not all columns of the deposit are shown.

The first 2 records, to show the layout:
| gene | reagent | total luciferase, z-score | total luciferase, % of control |
| --- | --- | --- | --- |
| TFCP2L1 (GeneID 29842) | 1 | 6.63 (active) | 214 |
| TFCP2L1 (GeneID 29842) | 2 | -1.29 | 56.2 |

The list itself, repeating the preview:
| gene | reagent | total luciferase, z-score | total luciferase, % of control |
| --- | --- | --- | --- |
| TFCP2L1 (GeneID 29842) | 1 | 6.63 (active) | 214 |
| TFCP2L1 (GeneID 29842) | 2 | -1.29 | 56.2 |
| TFCP2L1 (GeneID 29842) | 3 | 0.727 | 96.3 |
| CCNI (GeneID 10983) | 1 | -0.248 | 77 |
| CCNI (GeneID 10983) | 2 | -0.761 | 66.8 |
| CCNI (GeneID 10983) | 3 | -0.0658 | 80.6 |
| ACER1 (GeneID 125981) | 1 | 0.217 | 86.2 |
| ACER1 (GeneID 125981) | 2 | 1.01 | 102 |
| ACER1 (GeneID 125981) | 3 | -0.0879 | 80.1 |
| LINC00239 (GeneID 145200) | 1 | 3.06 (active) | 143 |
| LINC00239 (GeneID 145200) | 2 | -1.49 | 52.2 |
| LINC00239 (GeneID 145200) | 3 | -0.366 | 74.6 |
| TRIM64C (GeneID 646754) | 1 | -0.988 | 62.2 |
| TRIM64C (GeneID 646754) | 2 | 1.55 | 113 |
| TRIM64C (GeneID 646754) | 3 | -1.29 | 56.1 |
| DEFB126 (GeneID 81623) | 1 | 1.03 | 102 |
| DEFB126 (GeneID 81623) | 2 | -1.58 | 50.4 |
| DEFB126 (GeneID 81623) | 3 | 0.381 | 89.5 |
| TNS1 (GeneID 7145) | 1 | -0.11 | 79.7 |
| TNS1 (GeneID 7145) | 2 | -0.32 | 75.5 |
| TNS1 (GeneID 7145) | 3 | 0.621 | 94.2 |
| PIK3C2G (GeneID 5288) | 1 | -0.508 | 71.8 |
| PIK3C2G (GeneID 5288) | 2 | 0.0432 | 82.7 |
| PIK3C2G (GeneID 5288) | 3 | -0.864 | 64.7 |
| CCDC187 (GeneID 399693) | 1 | 0.693 | 95.7 |
| CCDC187 (GeneID 399693) | 2 | 0.0409 | 82.7 |
| CCDC187 (GeneID 399693) | 3 | 0.306 | 88 |
| KATNIP (GeneID 23247) | 1 | 0.829 | 98.4 |
| KATNIP (GeneID 23247) | 2 | -0.15 | 78.9 |
| KATNIP (GeneID 23247) | 3 | -0.93 | 63.4 |
| CHRNE (GeneID 1145) | 1 | -0.687 | 68.2 |
| CHRNE (GeneID 1145) | 2 | -1.67 | 48.6 |
| CHRNE (GeneID 1145) | 3 | -0.22 | 77.5 |
| RGS7 (GeneID 6000) | 1 | -0.626 | 69.4 |
| RGS7 (GeneID 6000) | 2 | 0.206 | 86 |
| RGS7 (GeneID 6000) | 3 | 0.211 | 86.1 |
| SAXO1 (GeneID 158297) | 1 | -0.467 | 72.6 |
| SAXO1 (GeneID 158297) | 2 | -1.07 | 60.6 |
| SAXO1 (GeneID 158297) | 3 | -0.273 | 76.5 |
